Results: PubChem BioAssay AID624297 (National Center for Advancing Translational Sciences (NCATS), 2012)
Among all 340,000 compounds or so, about 6,200 (1.8%) were called active. The inconclusive results got no clear call from the source; some entries with a clear call stand among them for comparison. Calls come from the whole dose curve; as a rule, active = well fitted activation curve with a large enough effect; inconclusive = small, poorly fitted or top-dose-only effect; inactive = no such curve, though single readings can be large or run the other way. Potencies of inconclusive entries are doubtful fits and often do not repeat.

Test: A quantitative high throughput screen for small molecules that induce DNA re-replication in SW480 colon adenocarcinoma cells. For re-replication activation: % of control where 0% means no effect. Note: nearly all actives have a fitted effect of over 55% in size.
Settings: Hoechst DNA content imaging, 48 h; re-replication activation: at 46.1 µM (top of the series) unless noted
Procedure, shortened: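 Hoechst fluorescence of nuclei (405 nm excitation, 500-530 nm emission) measured by plate-scanning imager after 48 hr compound exposure at 37 C; re-replication scored as increased number of nuclei with elevated intensity.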
Potency is the fitted concentration of half-maximal effect.

Compound	Potency	re-replication activation
Cc1ccccc1NC(=S)Nc1ccccc1	inconclusive: 6.51 µM [activator, single point]	–
Cc1cccc(Nc2cc(C)c3c(O)cccc3n2)c1C	active: 20.6 µM	–
CC(C)N(C(=O)[C@H]1CC(CC(=O)NC(C)(C)C)C(=O)N2CCc3c([nH]c4ccccc34)[C@]12C)C(C)C (some centres not stated)	inconclusive: 3.26 µM [activator, single point]	–
COC(=O)c1sccc1NC(=O)CSc1ccccc1NS(=O)(=O)c1ccc(Br)cc1	–	inactive: 27.5%
COc1ccc(/C=N/N2C(=N)SCC2=O)cc1	–	inactive: -0.276%
Cc1cccc(S(=O)(=O)Nc2nc3ccccc3nc2NCC2CCCO2)c1 (configuration not stated)	–	inactive: -8.75%
O=C1Nc2ccccc2/C1=C/c1ccccc1F	inconclusive: 29.1 µM [activator, single point]	–
COC(=O)[C@@]1(Cc2ccccc2)[C@@H]2C(=CC(=O)[C@H]2CC(=O)C(=O)N(C)C)CN1C(=O)c1ccccc1	inconclusive: 25.9 µM [activator, single point]	–
Cc1ccc2c(CNCc3ccccc3)cc(=O)oc2c1	active: 8.2 µM	–
Nc1ccc2c(c1)C(=NO)c1cc([N+](=O)[O-])ccc1-2	active: 10.3 µM	–
O=C(O)CCC1OC(=O)C(O)=C1c1ccccc1 (configuration not stated)	inconclusive: 6.51 µM [activator, single point]	–
COc1cccc(NC(=O)c2cccc(N3C(=O)C4CCC(C)CC4C3=O)c2)c1 (configuration not stated)	–	inactive: -21.3%
O=C(NCC(c1ccco1)N1CCCC1)c1sc2cc(F)ccc2c1Cl (configuration not stated)	inconclusive: 23.1 µM [activator, single point]	–
Cc1sc2ncnc(Sc3ccccc3C(=O)Nc3ccccc3Cl)c2c1C	inconclusive: 29.1 µM [activator, partial curve, poor fit]	–
CCN(CC)c1ccc(Nc2nc(N3CCOCC3)c3ccccc3n2)cc1	inconclusive: 29.1 µM [activator, single point]	–
O=C1[C@H](Cc2ccccc2)NCCCC[C@H](c2ccco2)N1Cc1ccccc1	inconclusive: 0.517 µM [activator, full curve, poor fit]	–
Cc1cc2c(cc1C)NC(c1nc3ccccc3[nH]1)C1=C(CC(C)(C)CC1=O)N2 (configuration not stated)	inconclusive: 29.1 µM [activator, single point]	–
COc1cc(/C=C/c2onc(C)c2[N+](=O)[O-])cc(OC)c1OC	–	inactive: -10.3%
COc1ccc(NC(=O)CN2C(=O)C(C)Oc3ccccc32)c(OC)c1 (configuration not stated)	–	inactive: -15.3%
CCN(CC)S(=O)(=O)c1ccc(-c2nnc(SCC(=O)N3c4ccccc4CC3C)n2CC)cc1 (configuration not stated)	–	inactive: -4.61%
CCOC(=O)c1c(NC(=O)C2=C(C)NC(=S)NC2c2ccc(CC)cc2)sc(C)c1C (configuration not stated)	inconclusive: 13 µM [activator, partial curve]	–

Some of these compounds in order of molecular weight, falling:
Compound	Potency	re-replication activation
Cc1cccc(S(=O)(=O)Nc2nc3ccccc3nc2NCC2CCCO2)c1 (configuration not stated)	–	inactive: -8.75%
O=C(NCC(c1ccco1)N1CCCC1)c1sc2cc(F)ccc2c1Cl (configuration not stated)	inconclusive: 23.1 µM [activator, single point]	–
O=C(O)CCC1OC(=O)C(O)=C1c1ccccc1 (configuration not stated)	inconclusive: 6.51 µM [activator, single point]	–

Later entries

Compound	Potency	re-replication activation
CN(CC(=O)Nc1c(Cl)cccc1Cl)C(=O)Cc1cccs1	inconclusive: 23.1 µM [activator, single point]	–
CC(C)C(=O)Nc1nnc(Cc2c[nH]c3ccccc23)s1	inconclusive: 18.4 µM [activator, partial curve, poor fit]	–
CCOC(=O)C1CCCc2c1[nH]c1c(C(=O)O)cccc21 (configuration not stated)	inconclusive: 16.4 µM [activator, single point]	–
COC(=O)CCC(=O)N1CCCC(C(=O)c2ccc(Cl)cc2C)C1 (configuration not stated)	–	inactive: -5.83%
CCC(C)(C)n1nnnc1C(c1cc2ccc(OC)cc2[nH]c1=O)N1CCc2ccccc21 (configuration not stated)	inconclusive: 8.2 µM [activator, partial curve]	–
Cc1ccc(Sc2ccc([N+](=O)[O-])cc2[N+](=O)[O-])nc1	inconclusive: 29.1 µM [activator, single point]	–
O=CN1CCN(C(=O)C(=O)c2cn(CC(=O)N3CCCCC3)c3ccccc23)CC1	inconclusive: 18.4 µM [activator, single point]	–
COc1ccc(NC(=O)N(C)C[C@H]2Oc3c(NS(=O)(=O)c4cccs4)cccc3C(=O)N([C@@H](C)CO)C[C@@H]2C)cc1	inconclusive: 6.51 µM [activator, single point]	–
CCOC(=O)c1sc(NC(=O)CSc2nc3c(cc2C#N)CCCCC3)c(C#N)c1C	inconclusive: 2.31 µM [activator, partial curve]	–
COc1cc(OC)cc(C(=O)Nc2sc3c(c2C(N)=O)CCC3)c1	inconclusive: 1.3 µM [activator, full curve, poor fit]	–
COCCC(=O)N1CCCC(C(=O)c2ccc(C(F)(F)F)cc2)C1 (configuration not stated)	–	inactive: -3.87%
CN(C)CCCN(C(=O)CCOc1ccccc1)c1nc2c(F)cccc2s1	inconclusive: 0.13 µM [activator, full curve, poor fit]	–
CCc1ccccc1N(C(=O)c1snc(C(N)=O)c1N)C(C(=O)NCC1CCCO1)c1c[nH]c2ccccc12 (configuration not stated)	inconclusive: 29.1 µM [activator, single point]	–
COc1ccccc1CNC(=O)CN1C(=O)NC(c2ccccc2)(c2ccc(C)c(C)c2)C1=O (configuration not stated)	inconclusive: 20.6 µM [activator, single point]	–
CCOC(=O)c1c(-c2ccccc2Cl)csc1NC(=O)CSc1nc(C)cc(=O)[nH]1	active: 23.1 µM	–
CCCOc1ccccc1N/C(=N/c1nc(C)cc(C)n1)NC(=O)COc1ccc(OC)cc1	inconclusive: 7.31 µM [activator, partial curve, poor fit]	–
Nc1nc(N)nc(-c2ccc([N+](=O)[O-])o2)n1	inconclusive: 29.1 µM [activator, single point]	–
COc1ccccc1NC(=S)NCCc1ccc(F)cc1	–	inactive: -13.3%
COc1cc(C(=O)N2CCN(Cc3ccc4c(c3)OCO4)CC2)c([N+](=O)[O-])cc1OC	inconclusive: 25.9 µM [activator, partial curve, poor fit]	–
COc1ccc(-c2cc(-c3cccs3)c(C#N)c(SCC(=O)NCc3ccccc3OC)n2)cc1	inconclusive: 16.4 µM [activator, partial curve, poor fit]	–
